Measurements: publication PMC8315060, “N-terminus-independent activation of c-Src via binding to a tetraspan(in) TM4SF5 in hepatocellular carcinoma is abolished by the TM4SF5 C-terminal peptide application” (Theranostics, 2021)
Where two headings read alike, the source gives them in different places. No constants are given. Whether binding was seen depends on the method and setting. Binding seen in cells or lysates may run through a third protein. Some entries that bind do so weakly or less than the wild type.

By UniProt entry, the sequences of proteins in these tests, tags left out. Where a name states a change or a piece, a line headed by the entry shows the natural chain unless it says otherwise.
UniProt O14894: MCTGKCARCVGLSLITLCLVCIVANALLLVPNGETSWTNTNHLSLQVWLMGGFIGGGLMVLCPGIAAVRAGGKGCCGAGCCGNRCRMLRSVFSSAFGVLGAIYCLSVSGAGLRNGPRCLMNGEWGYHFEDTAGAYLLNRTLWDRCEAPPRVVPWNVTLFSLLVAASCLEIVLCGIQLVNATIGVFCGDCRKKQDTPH
UniProt Q05397: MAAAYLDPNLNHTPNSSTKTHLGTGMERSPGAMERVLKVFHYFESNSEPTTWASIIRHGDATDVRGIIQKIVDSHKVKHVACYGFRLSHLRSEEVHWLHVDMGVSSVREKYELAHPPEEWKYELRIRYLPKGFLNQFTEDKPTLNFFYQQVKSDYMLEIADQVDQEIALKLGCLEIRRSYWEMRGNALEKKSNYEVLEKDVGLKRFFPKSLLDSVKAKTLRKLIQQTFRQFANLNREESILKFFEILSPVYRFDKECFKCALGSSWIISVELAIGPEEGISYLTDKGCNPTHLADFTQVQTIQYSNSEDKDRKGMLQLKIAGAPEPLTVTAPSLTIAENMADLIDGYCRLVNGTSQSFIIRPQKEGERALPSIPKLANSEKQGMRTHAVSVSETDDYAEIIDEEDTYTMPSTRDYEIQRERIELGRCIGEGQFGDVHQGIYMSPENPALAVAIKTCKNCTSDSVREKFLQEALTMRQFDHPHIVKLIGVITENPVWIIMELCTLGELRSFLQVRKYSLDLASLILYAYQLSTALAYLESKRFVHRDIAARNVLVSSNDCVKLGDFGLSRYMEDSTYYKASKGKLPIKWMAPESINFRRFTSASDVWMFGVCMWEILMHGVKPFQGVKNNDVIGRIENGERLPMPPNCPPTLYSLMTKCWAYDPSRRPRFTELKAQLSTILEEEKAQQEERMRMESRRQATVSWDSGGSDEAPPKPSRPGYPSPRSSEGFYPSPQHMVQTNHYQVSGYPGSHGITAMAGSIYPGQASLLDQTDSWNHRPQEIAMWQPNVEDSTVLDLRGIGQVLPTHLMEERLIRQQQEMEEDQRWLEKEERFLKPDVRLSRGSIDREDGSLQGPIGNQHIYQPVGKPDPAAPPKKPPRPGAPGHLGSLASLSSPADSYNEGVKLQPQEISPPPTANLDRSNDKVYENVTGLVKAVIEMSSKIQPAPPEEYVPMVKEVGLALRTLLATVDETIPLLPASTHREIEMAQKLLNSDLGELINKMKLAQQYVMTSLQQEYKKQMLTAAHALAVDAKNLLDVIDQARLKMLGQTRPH

Tests used:
[1] = biological target: FLAG-tagged TM4SF5 (human) (UniProt O14894); assay: co-IP; FLAG-TM4SF5 forms precipitated with anti-FLAG beads from whole cell lysates of stable SNU761 cells, immunoblot; in some panels PTP1B co-transfected or siPTP1B
[2] = biological target: endogenous TM4SF5 (human (endogenous in HepG2)) (UniProt O14894); assay: co-IP; endogenous proteins; HepG2 lysates precipitated with anti-TM4SF5 or anti-c-Src (sc-8056) antibody, normal IgG as control, immunoblot for FAK, c-Src and TM4SF5
STrEP-tagged TM4SF5WT [3] = biological target: STrEP-tagged TM4SF5WT (UniProt O14894); assay: co-IP; STrEP-tagged TM4SF5 precipitated with streptavidin beads from whole cell lysates of stably or transiently (48 h) transfected SNU449 cells, immunoblot; lysis buffer 1% Brij58, 150 mM NaCl, 20 mM HEPES pH 7.4, 2 mM MgCl2, 2 mM CaCl2; overnight in a cold room; in one panel cells treated with TSAHC 20 uM 24 h
[4] = biological target: STrEP-tagged TM4SF5_(C189A) mutant (human) (UniProt O14894); assay: as above
STrEP-tagged TM4SF5WT [5] = biological target: STrEP-tagged TM4SF5WT (UniProt O14894); assay: as above; remark: listed apart in the source

binding [1]	binding [2]	binding (STrEP-tagged TM4SF5WT [3])	binding [4]	binding (STrEP-tagged TM4SF5WT [5])	Molecule
binds	binds	binds	–	–	endogenous FAK (focal adhesion kinase) (from UniProt Q05397 1-1052)
–	–	–	binds	binds	Protein tyrosine phosphatase 1B (PTP1B) (enzyme, UniProt P18031 1-435) MEMEKEFEQIDKSGSWAAIYQDIRHEASDFPCRVAKLPKNKNRNRYRDVSPFDHSRIKLHQEDNDYINASLIKMEEAQRSYILTQGPLPNTCGHFWEMVWEQKSRGVVMLNRVMEKGSLKCAQYWPQKEEKEMIFEDTNLKLTLISEDIKSYYTVRQLELENLTTQETREILHFHYTTWPDFGVPESPASFLNFLFKVRESGSLSPEHGPVVVHCSAGIGRSGTFCLADTCLLLMDKRKDPSSVDIKKVLLEMRKFRMGLIQTADQLRFSYLAVIEGAKFIMGDSSVQDQWKELSHEDLEPPPEHIPPPPRPPKRILEPHNGKCREFFPNHQWVKEETQEDKDCPIKEEKGSPLNAAPYGIESMSQDTEVRSRVVGGSLRGAQAASPAKGEPSLPEKDEDHALSYWKPFLVNMCVATVLTAGAYLCYRFLFNSNT
